Data on 1 substance can be found in PMC4519324, “Substrate Specificity, Inhibitor Selectivity and Structure-Function Relationships of Aldo-Keto Reductase 1B15: A Novel Human Retinaldehyde Reductase” (PLoS ONE, 2015).

Amino acid sequences for entries named in this document (tags omitted). A change or cut given only in a name is not applied to a line headed by its entry.
UniProt C9JRZ8: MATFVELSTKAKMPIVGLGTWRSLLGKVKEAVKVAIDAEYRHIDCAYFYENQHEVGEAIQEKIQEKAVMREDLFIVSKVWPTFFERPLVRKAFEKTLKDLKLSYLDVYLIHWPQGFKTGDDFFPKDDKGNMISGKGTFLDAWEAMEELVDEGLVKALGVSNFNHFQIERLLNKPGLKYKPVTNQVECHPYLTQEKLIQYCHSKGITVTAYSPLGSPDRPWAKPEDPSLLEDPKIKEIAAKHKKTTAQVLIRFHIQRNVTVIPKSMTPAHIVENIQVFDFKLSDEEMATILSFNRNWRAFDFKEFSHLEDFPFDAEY

Results are given in words; binding and its absence hold for the method and conditions named.

This test has as its target Human aldo-keto reductase 1B15 (AKR1B15.1) (human) (UniProt C9JRZ8). Kind of test: SEC; Superdex 75 10/300 GL in storage buffer (200 mM potassium phosphate, pH 7.4, 5 mM EDTA, 5 mM DTT); AKR1B15 from the chaperone co-expressing strain, no sarkosyl; both purified. For orientation: In gel filtration, larger molecules generally elute earlier.

For the substance “Human aldo-keto reductase 1B15 (AKR1B15.1) (from UniProt C9JRZ8-1 1-316) (enzyme)”, the binding entry is “no binding”.
